Data as given in PubChem BioAssay AID1508597 (Cure First, 2020).
The deposit covers about 2,100 reagents; below is a random part of them. 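Calls flag viability under 80% in either arm, not effects specific to rucaparib; the reference for percent is not stated.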 No sequences are given here. The record does not give: the 100% reference.

Screen: 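Genes whose silencing sensitises or protects ovarian cancer cells against rucaparib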 (primary screen)
Cells: human ovarian carcinoma lines grown from tumours: OCI-P5x (papillary serous) and OCI-C5x (clear cell)
Reagents: siRNA pool against human genes, 1.25 pmol siRNA per well
Duration: 72 h or 96 h, depending on the cell culture
Challenge: rucaparib 20 µM (about IC30) or vehicle, present until read-out
Measurement: 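ATP luminescence measured at 72 or 96 h according to the culture, then normalised and expressed as percent viability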
Scale: viability, normalised: higher = more viable cells remaining
Active means: 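a well counts as a hit if its normalised viability is under 80 percent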
Calls: active = viability under 80%; inactive = viability 80% or more

The opening 2 entries, ahead of the listing:
gene symbol | rucaparib or vehicle | cell line | technical replicate | viability, normalised (%) | Call
CDK8 | Rucaparib | OCI-C5x (clear cell) | 1 | 59.3 | active
CDK8 | Rucaparib | OCI-C5x (clear cell) | 2 | 33.4 | active

The listing, from the start:
gene symbol | rucaparib or vehicle | cell line | technical replicate | viability, normalised (%) | Call
CDK8 | Rucaparib | OCI-C5x (clear cell) | 1 | 59.3 | active
CDK8 | Rucaparib | OCI-C5x (clear cell) | 2 | 33.4 | active
CDK8 | Rucaparib | OCI-C5x (clear cell) | 3 | 58.5 | active
CDK8 | Rucaparib | OCI-P5x (serous) | 1 | 105 | inactive
CDK8 | Rucaparib | OCI-P5x (serous) | 2 | 92.9 | inactive
CDK8 | Rucaparib | OCI-P5x (serous) | 3 | 103 | inactive
CDK8 | Vehicle | OCI-C5x (clear cell) | 1 | 54.3 | active
CDK8 | Vehicle | OCI-C5x (clear cell) | 2 | 52.3 | active
CDK8 | Vehicle | OCI-C5x (clear cell) | 3 | 69.1 | active
CDK8 | Vehicle | OCI-P5x (serous) | 1 | 95.2 | inactive
CDK8 | Vehicle | OCI-P5x (serous) | 2 | 84.2 | inactive
CDK8 | Vehicle | OCI-P5x (serous) | 3 | 82 | inactive
RLIM | Rucaparib | OCI-C5x (clear cell) | 1 | 58.3 | active
RLIM | Rucaparib | OCI-C5x (clear cell) | 2 | 50.2 | active
RLIM | Rucaparib | OCI-C5x (clear cell) | 3 | 37 | active
RLIM | Rucaparib | OCI-P5x (serous) | 1 | 61.7 | active
RLIM | Rucaparib | OCI-P5x (serous) | 2 | 54.5 | active
RLIM | Rucaparib | OCI-P5x (serous) | 3 | 57.7 | active
RLIM | Vehicle | OCI-C5x (clear cell) | 1 | 43.1 | active
RLIM | Vehicle | OCI-C5x (clear cell) | 2 | 52 | active
RLIM | Vehicle | OCI-C5x (clear cell) | 3 | 44.2 | active
RLIM | Vehicle | OCI-P5x (serous) | 1 | 71.9 | active
RLIM | Vehicle | OCI-P5x (serous) | 2 | 91.4 | inactive
RLIM | Vehicle | OCI-P5x (serous) | 3 | 163 | inactive
POLI | Rucaparib | OCI-C5x (clear cell) | 1 | 52.7 | active
POLI | Rucaparib | OCI-C5x (clear cell) | 2 | 53.8 | active
POLI | Rucaparib | OCI-C5x (clear cell) | 3 | 42.6 | active
POLI | Rucaparib | OCI-P5x (serous) | 1 | 84 | inactive
POLI | Rucaparib | OCI-P5x (serous) | 2 | 102 | inactive
POLI | Rucaparib | OCI-P5x (serous) | 3 | 92.8 | inactive
POLI | Vehicle | OCI-C5x (clear cell) | 1 | 53.5 | active
POLI | Vehicle | OCI-C5x (clear cell) | 2 | 52.9 | active
POLI | Vehicle | OCI-C5x (clear cell) | 3 | 65.1 | active
POLI | Vehicle | OCI-P5x (serous) | 1 | 75 | active
POLI | Vehicle | OCI-P5x (serous) | 2 | 68.7 | active
POLI | Vehicle | OCI-P5x (serous) | 3 | 84.2 | inactive
ZFP82 | Rucaparib | OCI-C5x (clear cell) | 1 | 69.6 | active
ZFP82 | Rucaparib | OCI-C5x (clear cell) | 2 | 57 | active
ZFP82 | Rucaparib | OCI-C5x (clear cell) | 3 | 55.9 | active
ZFP82 | Rucaparib | OCI-P5x (serous) | 1 | 85.3 | inactive
ZFP82 | Rucaparib | OCI-P5x (serous) | 2 | 75 | active
ZFP82 | Rucaparib | OCI-P5x (serous) | 3 | 84.7 | inactive
ZFP82 | Vehicle | OCI-C5x (clear cell) | 1 | 62.5 | active
ZFP82 | Vehicle | OCI-C5x (clear cell) | 2 | 73.1 | active
ZFP82 | Vehicle | OCI-C5x (clear cell) | 3 | 49.5 | active
ZFP82 | Vehicle | OCI-P5x (serous) | 1 | 90 | inactive
ZFP82 | Vehicle | OCI-P5x (serous) | 2 | 85.3 | inactive
ZFP82 | Vehicle | OCI-P5x (serous) | 3 | 86.6 | inactive
